One molecule from PMC8983855 can be followed below.

Amino acid sequences for entries named in this document (tags omitted).
UniProt P41279: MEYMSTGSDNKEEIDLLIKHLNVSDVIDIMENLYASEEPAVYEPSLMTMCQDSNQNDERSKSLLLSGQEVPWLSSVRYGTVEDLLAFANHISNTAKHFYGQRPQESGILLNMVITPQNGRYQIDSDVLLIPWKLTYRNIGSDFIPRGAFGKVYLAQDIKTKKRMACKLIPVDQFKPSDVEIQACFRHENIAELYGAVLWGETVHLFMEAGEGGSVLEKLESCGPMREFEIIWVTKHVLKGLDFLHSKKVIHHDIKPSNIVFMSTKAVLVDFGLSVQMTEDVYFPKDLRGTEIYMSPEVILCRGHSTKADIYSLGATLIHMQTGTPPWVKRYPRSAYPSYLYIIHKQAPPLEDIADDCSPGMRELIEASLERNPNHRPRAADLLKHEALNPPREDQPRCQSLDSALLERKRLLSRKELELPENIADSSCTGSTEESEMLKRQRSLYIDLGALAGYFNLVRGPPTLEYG

This assay has as its target HA-TPL2 (UniProt P41279). The experiment in a line: co-IP; HEK293 cells transfected with HA-TPL2 and Myc-IKKɛ constructs, with or without 20 ng/ml TNF for 1 hour; lysates with Protein A agarose beads and anti-HA (reciprocal: anti-Myc) antibody, 4 °C, 4 hours; washed 3 to 4 times with cell lysis buffer; WB.

No constants are given. Whether binding was seen depends on the method and setting. Binding seen in cells or lysates may run through a third protein. Some binding calls cover weakened binding; strength is not graded here. Where a sequence is shown, tags or fusion partners need not be part of it.

B1: Myc-IKKɛ^KD (K38A) (enzyme, UniProt Q14164 1-716)
chain: MQSTANYLWHTDDLLGQGATASVYKARNKKSGELVAVAVFNTTSYLRPREVQVREFEVLRKLNHQNIVKLFAVEETGGSRQKVLVMEYCSSGSLLSVLESPENAFGLPEDEFLVVLRCVVAGMNHLRENGIVHRDIKPGNIMRLVGEEGQSIYKLTDFGAARELDDDEKFVSVYGTEEYLHPDMYERAVLRKPQQKAFGVTVDLWSIGVTLYHAATGSLPFIPFGGPRRNKEIMYRITTEKPAGAIAGAQRRENGPLEWSYTLPITCQLSLGLQSQLVPILANILEVEQAKCWGFDQFFAETSDILQRVVVHVFSLSQAVLHHIYIHAHNTIAIFQEAVHKQTSVAPRHQEYLFEGHLCVLEPSVSAQHIAHTTASSPLTLFSTAIPKGLAFRDPALDVPKFVPKVDLQADYNTAKGVLGAGYQALRLARALLDGQELMFRGLHWVMEVLQATCRRTLEVARTSLLYLSSSLGTERFSSVAGTPEIQELKAAAELRSRLRTLAEVLSRCSQNITETQESLSSLNRELVKSRDQVHEDRSIQQIQCCLDKMNFIYKQFKKSRMRPGLGYNEEQIHKLDKVNFSHLAKRLLQVFQEECVQKYQASLVTHGKRMRVVHETRNHLRLVGCSVAACNTEAQGVQESLSKLLEELSHQLLQDRAKGAQASPPPIAPYPSPTRKDLLLHMQELCEGMKLLASDLLDNNRIIERLNRVPAPPDV
As for B1, the binding entry is “binds”.
